Reference: the supplement of paper PMC7666118
Some of the results follow.

Sequences of proteins named here, by UniProt entry; tags and fusion partners are left off. A change or cut given only in a name is not applied to a line headed by its entry.
UniProt Q5H9E4: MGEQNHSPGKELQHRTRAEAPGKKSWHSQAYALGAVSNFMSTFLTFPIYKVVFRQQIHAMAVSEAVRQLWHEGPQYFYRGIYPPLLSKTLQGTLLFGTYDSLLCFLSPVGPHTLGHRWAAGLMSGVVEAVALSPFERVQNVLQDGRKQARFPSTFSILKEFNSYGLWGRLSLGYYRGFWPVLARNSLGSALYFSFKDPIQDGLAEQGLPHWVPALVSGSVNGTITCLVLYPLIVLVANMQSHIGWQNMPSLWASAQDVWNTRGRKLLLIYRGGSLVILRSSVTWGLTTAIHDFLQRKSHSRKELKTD
UniProt Q4G0J3: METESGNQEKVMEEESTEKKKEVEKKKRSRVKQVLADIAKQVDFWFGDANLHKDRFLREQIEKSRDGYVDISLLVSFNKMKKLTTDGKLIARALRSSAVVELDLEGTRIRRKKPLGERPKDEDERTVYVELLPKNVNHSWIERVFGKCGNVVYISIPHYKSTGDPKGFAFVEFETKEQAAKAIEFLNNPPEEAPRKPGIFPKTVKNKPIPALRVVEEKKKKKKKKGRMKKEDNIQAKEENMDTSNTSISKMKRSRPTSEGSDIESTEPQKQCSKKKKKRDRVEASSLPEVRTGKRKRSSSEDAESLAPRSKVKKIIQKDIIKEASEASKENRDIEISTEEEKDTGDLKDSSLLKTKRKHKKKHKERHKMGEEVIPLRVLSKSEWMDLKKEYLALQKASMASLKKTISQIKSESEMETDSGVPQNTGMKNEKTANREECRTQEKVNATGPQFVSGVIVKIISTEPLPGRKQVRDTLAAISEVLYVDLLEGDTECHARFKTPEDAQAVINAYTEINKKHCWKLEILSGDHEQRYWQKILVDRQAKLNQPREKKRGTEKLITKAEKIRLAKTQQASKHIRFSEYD
UniProt P07948: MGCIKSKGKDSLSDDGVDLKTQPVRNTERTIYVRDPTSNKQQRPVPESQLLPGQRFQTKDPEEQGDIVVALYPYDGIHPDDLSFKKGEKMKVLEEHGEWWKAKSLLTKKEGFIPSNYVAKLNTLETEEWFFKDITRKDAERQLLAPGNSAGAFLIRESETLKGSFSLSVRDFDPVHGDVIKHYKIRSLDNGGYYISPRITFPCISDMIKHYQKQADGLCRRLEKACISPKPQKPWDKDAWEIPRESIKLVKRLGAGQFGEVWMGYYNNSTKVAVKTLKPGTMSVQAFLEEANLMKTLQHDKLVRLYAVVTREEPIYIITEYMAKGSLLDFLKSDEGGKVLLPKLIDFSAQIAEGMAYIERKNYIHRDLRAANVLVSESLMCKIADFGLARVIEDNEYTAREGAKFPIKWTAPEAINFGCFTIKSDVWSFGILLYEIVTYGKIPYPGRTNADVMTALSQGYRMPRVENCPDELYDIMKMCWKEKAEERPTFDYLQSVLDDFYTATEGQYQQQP
UniProt Q8IV50: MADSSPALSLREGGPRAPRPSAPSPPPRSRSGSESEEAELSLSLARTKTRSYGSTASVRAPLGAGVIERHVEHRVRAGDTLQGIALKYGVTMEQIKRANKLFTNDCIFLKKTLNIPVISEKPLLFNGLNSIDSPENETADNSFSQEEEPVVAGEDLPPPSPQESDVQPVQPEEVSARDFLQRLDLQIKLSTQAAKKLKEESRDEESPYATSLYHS
UniProt O95777: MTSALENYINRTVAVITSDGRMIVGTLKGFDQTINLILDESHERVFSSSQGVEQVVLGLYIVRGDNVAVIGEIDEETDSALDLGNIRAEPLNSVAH
UniProt Q5U5X0: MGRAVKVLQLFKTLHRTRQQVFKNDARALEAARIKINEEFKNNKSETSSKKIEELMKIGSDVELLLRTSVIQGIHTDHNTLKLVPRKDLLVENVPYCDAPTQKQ
UniProt Q14847: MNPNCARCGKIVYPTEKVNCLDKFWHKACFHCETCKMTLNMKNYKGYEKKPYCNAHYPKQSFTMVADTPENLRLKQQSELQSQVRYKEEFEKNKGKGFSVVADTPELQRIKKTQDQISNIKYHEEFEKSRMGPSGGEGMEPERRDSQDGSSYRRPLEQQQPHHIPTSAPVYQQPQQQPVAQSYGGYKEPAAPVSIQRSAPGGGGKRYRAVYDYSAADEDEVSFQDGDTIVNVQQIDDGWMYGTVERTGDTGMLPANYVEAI
UniProt Q9UDY8: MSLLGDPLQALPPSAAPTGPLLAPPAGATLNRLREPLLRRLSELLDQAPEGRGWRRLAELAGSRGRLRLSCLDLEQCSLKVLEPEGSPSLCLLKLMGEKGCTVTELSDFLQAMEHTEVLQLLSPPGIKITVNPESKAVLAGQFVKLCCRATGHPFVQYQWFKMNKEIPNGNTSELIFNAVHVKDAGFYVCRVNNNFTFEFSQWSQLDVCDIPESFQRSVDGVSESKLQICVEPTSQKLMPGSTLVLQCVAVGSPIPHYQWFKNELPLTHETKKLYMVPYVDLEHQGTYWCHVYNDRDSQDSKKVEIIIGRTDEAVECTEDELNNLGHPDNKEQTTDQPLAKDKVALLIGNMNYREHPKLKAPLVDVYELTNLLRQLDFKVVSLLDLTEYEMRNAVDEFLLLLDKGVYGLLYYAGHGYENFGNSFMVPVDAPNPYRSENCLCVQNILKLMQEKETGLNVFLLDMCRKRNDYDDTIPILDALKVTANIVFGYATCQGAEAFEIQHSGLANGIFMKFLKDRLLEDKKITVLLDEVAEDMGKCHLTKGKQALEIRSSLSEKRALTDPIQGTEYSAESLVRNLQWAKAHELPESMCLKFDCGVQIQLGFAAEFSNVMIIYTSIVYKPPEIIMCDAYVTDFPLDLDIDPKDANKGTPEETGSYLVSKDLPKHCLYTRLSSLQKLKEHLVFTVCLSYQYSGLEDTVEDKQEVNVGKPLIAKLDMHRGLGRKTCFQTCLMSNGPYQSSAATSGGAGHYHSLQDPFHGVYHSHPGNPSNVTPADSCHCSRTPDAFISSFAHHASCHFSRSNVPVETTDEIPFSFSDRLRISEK
UniProt Q9H089: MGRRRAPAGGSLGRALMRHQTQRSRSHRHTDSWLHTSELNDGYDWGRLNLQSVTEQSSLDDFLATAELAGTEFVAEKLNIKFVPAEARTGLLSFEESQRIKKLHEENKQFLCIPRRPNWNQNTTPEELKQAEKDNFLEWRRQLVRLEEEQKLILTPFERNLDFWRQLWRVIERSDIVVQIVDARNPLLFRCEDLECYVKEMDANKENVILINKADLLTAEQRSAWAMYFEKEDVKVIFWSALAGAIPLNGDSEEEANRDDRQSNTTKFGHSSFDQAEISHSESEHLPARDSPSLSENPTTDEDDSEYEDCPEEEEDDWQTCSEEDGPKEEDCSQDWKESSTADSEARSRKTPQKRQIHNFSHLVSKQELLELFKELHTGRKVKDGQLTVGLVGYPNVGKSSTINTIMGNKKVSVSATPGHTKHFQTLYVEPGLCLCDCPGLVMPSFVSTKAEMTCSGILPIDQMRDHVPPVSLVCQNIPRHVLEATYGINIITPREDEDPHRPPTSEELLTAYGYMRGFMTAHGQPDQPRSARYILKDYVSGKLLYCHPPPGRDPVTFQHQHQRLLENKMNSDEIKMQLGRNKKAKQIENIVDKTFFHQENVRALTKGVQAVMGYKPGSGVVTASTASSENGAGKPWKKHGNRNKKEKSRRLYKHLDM
UniProt Q96G23: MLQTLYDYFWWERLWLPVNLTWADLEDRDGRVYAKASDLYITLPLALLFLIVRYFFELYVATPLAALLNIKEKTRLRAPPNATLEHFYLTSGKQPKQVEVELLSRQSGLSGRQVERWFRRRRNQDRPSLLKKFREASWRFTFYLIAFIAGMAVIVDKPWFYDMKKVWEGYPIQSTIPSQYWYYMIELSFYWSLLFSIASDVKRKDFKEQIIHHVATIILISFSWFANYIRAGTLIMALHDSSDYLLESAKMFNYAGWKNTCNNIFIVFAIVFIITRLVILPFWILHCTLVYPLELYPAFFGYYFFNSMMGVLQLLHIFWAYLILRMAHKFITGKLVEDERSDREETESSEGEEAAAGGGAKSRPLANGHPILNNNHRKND
UniProt P48163: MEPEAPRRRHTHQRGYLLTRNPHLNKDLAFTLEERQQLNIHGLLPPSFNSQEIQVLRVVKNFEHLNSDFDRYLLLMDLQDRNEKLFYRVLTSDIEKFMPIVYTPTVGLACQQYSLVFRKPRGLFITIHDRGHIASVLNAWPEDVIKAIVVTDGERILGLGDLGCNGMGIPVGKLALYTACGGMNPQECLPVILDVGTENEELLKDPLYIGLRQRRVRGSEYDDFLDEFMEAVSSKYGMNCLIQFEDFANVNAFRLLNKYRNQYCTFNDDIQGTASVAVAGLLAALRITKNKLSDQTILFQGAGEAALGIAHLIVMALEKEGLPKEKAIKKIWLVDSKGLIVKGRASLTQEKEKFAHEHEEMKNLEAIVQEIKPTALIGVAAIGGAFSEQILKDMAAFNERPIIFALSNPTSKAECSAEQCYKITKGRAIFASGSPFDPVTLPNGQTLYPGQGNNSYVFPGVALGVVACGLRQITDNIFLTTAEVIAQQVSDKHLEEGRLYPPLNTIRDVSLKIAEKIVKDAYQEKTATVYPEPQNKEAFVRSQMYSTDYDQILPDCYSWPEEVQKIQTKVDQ
UniProt P33991: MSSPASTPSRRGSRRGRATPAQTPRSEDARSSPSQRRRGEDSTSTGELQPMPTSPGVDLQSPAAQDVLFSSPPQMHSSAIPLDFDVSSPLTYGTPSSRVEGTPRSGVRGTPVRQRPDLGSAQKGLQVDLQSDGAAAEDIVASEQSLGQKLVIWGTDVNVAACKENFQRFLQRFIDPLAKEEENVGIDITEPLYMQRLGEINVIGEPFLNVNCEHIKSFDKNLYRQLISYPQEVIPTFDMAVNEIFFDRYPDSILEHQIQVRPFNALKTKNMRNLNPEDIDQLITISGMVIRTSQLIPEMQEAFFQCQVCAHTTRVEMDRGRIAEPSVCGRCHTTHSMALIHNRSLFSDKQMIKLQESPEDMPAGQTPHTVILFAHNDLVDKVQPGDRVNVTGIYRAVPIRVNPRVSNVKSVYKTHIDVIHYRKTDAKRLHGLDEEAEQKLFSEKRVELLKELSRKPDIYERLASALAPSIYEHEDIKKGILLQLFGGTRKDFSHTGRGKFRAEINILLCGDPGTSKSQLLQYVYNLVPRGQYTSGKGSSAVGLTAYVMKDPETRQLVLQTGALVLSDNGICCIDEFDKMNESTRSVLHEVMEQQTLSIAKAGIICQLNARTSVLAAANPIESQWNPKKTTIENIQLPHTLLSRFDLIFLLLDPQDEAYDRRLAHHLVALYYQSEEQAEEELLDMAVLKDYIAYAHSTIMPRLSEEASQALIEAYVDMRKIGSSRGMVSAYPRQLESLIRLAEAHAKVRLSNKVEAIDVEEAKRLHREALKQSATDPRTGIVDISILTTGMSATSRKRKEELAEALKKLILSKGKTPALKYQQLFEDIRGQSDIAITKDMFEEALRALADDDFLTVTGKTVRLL
UniProt P40926: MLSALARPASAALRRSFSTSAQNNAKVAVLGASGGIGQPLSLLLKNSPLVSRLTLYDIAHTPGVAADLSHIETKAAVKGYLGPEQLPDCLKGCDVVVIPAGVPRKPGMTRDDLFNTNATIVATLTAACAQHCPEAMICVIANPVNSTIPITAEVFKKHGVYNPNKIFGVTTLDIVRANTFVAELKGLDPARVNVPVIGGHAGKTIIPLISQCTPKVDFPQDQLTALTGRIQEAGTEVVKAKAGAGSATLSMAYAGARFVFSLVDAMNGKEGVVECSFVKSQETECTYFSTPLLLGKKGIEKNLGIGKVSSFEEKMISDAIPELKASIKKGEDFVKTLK
UniProt Q8IWC1: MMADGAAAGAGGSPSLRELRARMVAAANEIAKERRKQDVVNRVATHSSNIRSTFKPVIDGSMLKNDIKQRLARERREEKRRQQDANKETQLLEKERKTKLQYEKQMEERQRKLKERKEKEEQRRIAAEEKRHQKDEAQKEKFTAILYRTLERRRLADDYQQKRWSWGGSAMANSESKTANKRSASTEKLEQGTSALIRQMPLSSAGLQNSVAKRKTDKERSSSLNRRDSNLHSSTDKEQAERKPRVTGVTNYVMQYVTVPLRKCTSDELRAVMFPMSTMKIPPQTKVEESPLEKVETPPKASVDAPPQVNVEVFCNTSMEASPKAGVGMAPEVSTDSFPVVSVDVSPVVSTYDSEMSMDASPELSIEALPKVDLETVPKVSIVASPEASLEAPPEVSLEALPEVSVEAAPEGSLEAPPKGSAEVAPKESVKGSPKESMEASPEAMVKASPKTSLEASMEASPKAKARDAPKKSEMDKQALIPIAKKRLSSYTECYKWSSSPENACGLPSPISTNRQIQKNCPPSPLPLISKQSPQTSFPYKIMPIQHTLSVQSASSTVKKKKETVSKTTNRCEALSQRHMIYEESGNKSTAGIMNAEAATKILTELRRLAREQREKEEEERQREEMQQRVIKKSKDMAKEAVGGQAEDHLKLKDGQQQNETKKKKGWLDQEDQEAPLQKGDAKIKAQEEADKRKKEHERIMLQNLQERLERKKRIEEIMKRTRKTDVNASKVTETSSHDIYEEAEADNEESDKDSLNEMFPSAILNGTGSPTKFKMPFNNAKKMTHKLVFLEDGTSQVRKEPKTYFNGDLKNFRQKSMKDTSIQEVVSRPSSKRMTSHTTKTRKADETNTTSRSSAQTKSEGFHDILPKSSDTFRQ

These targets were tested with COc1ccc(Cn2ccc3cc(C)c(C(=O)NO)cc32)cc1 (assay: dose-dependent thermal stabilisation call (2D-TPP, DLPTP, 10% FDR) (binary (1 = stabilised)); higher = stabilised by the compound). Conditions: system: HL-60 intact cells; concentration range 0.04-10 µM.
Description: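 2D thermal proteome profiling in intact HL-60 cells treated with BRD-3811 (0, 0.04, 0.29, 2, 10 uM) for 90 min at 37 C, then heated 3 min at one of 12 temperatures (42-63.9 C). Soluble protein was quantified by TMT10 MS. The value is the DLPTP call of the paper: dose-dependent thermal stabilisation over all temperatures at 10% FDR (F-test of a dose-response against a flat model); one experiment, one call per tested protein.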

| Target | dose-dependent thermal stabilisation call |
| --- | --- |
| LCMT1 (UniProt Q9UIC8) | inactive: 0 |
| MAPK3 (UniProt P27361) | inactive: 0 |
| LEMD3 (UniProt Q9Y2U8) | inactive: 0 |
| LRRC47 (UniProt Q8N1G4) | inactive: 0 |
| LRRC8A (UniProt Q8IWT6) | inactive: 0 |
| MCART6 (UniProt Q5H9E4) | inactive: 0 |
| MAP7 (UniProt Q14244) | inactive: 0 |
| LSM14A (UniProt Q8ND56) | inactive: 0 |
| MAP1LC3B2 (UniProt A6NCE7) | inactive: 0 |
| LUZP1 (UniProt Q86V48) | inactive: 0 |
| LMNB2 (UniProt Q03252) | inactive: 0 |
| MAP2K3 (UniProt P46734) | inactive: 0 |
| LRCH3 (UniProt Q96II8) | inactive: 0 |
| MAPK14 (UniProt Q16539) | inactive: 0 |
| MBTPS2 (UniProt O43462) | inactive: 0 |
| MBNL1 (UniProt Q9NR56) | inactive: 0 |
| LARP7 (UniProt Q4G0J3) | inactive: 0 |
| LYN (UniProt P07948) | inactive: 0 |
| MAT2A (UniProt P31153) | inactive: 0 |
| LOC100129086 | inactive: 0 |

Looked up one by one from the entries so far:

| Target | dose-dependent thermal stabilisation call |
| --- | --- |
| LEMD3 (UniProt Q9Y2U8) | inactive: 0 |
| LUZP1 (UniProt Q86V48) | inactive: 0 |
| LRRC47 (UniProt Q8N1G4) | inactive: 0 |

Remaining list, next part:

| Target | dose-dependent thermal stabilisation call |
| --- | --- |
| LYSMD2 (UniProt Q8IV50) | inactive: 0 |
| LSM8 (UniProt O95777) | inactive: 0 |
| LARP1 (UniProt Q6PKG0) | inactive: 0 |
| LYRM7 (UniProt Q5U5X0) | inactive: 0 |
| LIG3 (UniProt P49916) | inactive: 0 |
| LUZP6 (UniProt Q538Z0) | inactive: 0 |
| LASP1 (UniProt Q14847) | inactive: 0 |
| MALT1 (UniProt Q9UDY8) | inactive: 0 |
| LSG1 (UniProt Q9H089) | inactive: 0 |
| MAP4K5 (UniProt Q9Y4K4) | inactive: 0 |
| LASS2 (UniProt Q96G23) | inactive: 0 |
| LPCAT1 (UniProt Q8NF37) | inactive: 0 |
| MBD2 (UniProt Q9UBB5) | inactive: 0 |
| ME1 (UniProt P48163) | inactive: 0 |
| MCM4 (UniProt P33991) | inactive: 0 |
| M6PRBP1 (UniProt O60664) | inactive: 0 |
| LOC100133930 | inactive: 0 |
| MDH2 (UniProt P40926) | active: 1 |
| MAP7D3 (UniProt Q8IWC1) | inactive: 0 |
| LOC90379 | inactive: 0 |
